Test results from PMC8831596, “Structures of highly flexible intracellular domain of human α7 nicotinic acetylcholine receptor” (Nature Communications, 2022).
These are yes or no findings as the source states them, for the method shown. Some results given as binding are weak or reduced against the parent protein; the word gives no strength.

By UniProt entry, the sequences of proteins in these tests, tags left out. Residues count along the entry.
UniProt P36544, residues 231-494: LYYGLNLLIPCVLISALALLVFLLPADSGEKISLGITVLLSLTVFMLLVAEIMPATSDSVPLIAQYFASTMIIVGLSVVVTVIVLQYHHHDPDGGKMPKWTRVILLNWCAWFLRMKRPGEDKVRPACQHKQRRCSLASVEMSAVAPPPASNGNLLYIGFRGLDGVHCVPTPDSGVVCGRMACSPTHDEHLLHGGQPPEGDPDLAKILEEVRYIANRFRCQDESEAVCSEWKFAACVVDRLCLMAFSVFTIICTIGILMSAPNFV
UniProt Q9NRD5, residues 22-105: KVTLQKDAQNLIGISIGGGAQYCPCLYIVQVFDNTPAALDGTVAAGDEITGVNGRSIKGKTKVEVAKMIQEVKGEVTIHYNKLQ

Molecular target: human α7 nicotinic acetylcholine receptor TMD + ICD construct (L209-V472) (human) (UniProt P36544)
Test: SPR; steady state, Biacore 3000, NTA sensor chip, 25 °C; α7nAChR immobilised at 1000-2000 RU; PDZ domain of PICK1 flowed at 30 μl/min; apparent dissociation constants from a Langmuir isotherm; both purified

## PDZ domain of PICK1 (from UniProt Q9NRD5 22-105) (domain or fragment)
  binding: binds
